No constants are given. Whether binding was seen depends on the method and setting. In cells and extracts the contact can be indirect. Some results given as binding are weak or reduced against the parent protein; the word gives no strength. Tags and fused reporters may be left off the sequences shown. Each block holds one binder with its values, some of them ahead of it.
Key:
[1] = biological target: Flag-tagged (2x) mAsxl1 (pcDNA3, transfected) (mouse) (UniProt P59598); experiment: co-IP; HEK293T transfected with Flag-Asxl1 and Myc-tagged HCF-1 truncation mutants; IP anti-Flag, WB anti-Myc
[2] = biological target: T1, GST-fused Asxl1 (aa1193-1514) (mouse) (UniProt P59598); experiment: pull-down; 2 ug of GST-Asxl1 (aa1193-1514) (or GST) incubated with 10 uL of in vitro translated Flag-HCF-1 (aa1-434); WB anti-Flag M2; only the target purified
T1 sequence: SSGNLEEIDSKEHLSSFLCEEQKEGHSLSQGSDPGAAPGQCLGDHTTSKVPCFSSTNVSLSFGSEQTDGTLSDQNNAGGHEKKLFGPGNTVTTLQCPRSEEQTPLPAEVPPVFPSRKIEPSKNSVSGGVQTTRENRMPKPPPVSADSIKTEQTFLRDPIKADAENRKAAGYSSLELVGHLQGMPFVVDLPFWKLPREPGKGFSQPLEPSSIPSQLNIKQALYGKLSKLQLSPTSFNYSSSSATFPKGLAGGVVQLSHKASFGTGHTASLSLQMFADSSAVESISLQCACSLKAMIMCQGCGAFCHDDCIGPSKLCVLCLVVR

[3] = biological target: T2, Flag-HCF-1 (aa1-434), expressed in cells (human) (UniProt P51610); experiment: co-IP; GFP-tagged Asxl1 fragments with Flag-HCF-1 (aa1-434)
T2 sequence: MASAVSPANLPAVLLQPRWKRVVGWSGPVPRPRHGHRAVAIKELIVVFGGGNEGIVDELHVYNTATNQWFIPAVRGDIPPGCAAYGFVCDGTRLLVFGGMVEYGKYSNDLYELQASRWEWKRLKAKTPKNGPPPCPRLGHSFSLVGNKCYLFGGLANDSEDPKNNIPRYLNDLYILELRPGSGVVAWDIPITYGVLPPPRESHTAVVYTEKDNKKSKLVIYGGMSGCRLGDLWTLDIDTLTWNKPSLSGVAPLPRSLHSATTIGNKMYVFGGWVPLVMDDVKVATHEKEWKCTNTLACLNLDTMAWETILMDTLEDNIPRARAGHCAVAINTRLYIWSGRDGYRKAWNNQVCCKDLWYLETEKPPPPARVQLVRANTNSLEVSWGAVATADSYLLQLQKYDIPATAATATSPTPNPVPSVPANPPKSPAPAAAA

binding [1]: binds
B1: Myc-tagged hHCF-1 (aa1-434) (domain or fragment, UniProt P51610 1-434)
chain: T2 sequence

binding [2]: binds
B2: Flag-HCF-1 (aa1-434), in vitro translated (domain or fragment, UniProt P51610 1-434)
chain: T2 sequence

binding [3]: binds
B3: GFP-tagged Asxl1 (aa1193-1514) (domain or fragment, UniProt P59598 1193-1514)
chain: T1 sequence

— publication PMC6215009
